According to PubChem BioAssay AID2685 (National Center for Advancing Translational Sciences (NCATS), 2010):
The other results are listed elsewhere or left out. These are further read-outs of the screen, such as a control signal, another cell line or another target. No call is given for them. Compounds called inactive in the main read-out are mostly missing here. The note in brackets gives the kind of curve behind each potency; many fits are weak.

Assay: qHTS Assay for Lipid Storage Modulators in Drosophila S3 Cells;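 on cell number change: cells counted by Cell Tracker Red CMTPX staining in the red channel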
Settings: BODIPY lipid droplet fluorescence, 18-24 h; for cell number change: measured here: cell count max response, cells fed with added oleic acid
Summary of the method: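 Laser-scanning cytometry quantifies lipid droplet accumulation (500–530 nm total intensity; droplet/cell object ratio) in oleic acid-fed (400 uM added) Drosophila S3 cells treated with a concentration series. 20 uM Triacsin C defined 100% inhibition.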

[1] = measured here: lipid fluorescence (Fed channel) AC50, cells fed with added oleic acid
[2] = measured here: cell number channel AC50, cells fed with added oleic acid

Row | Compound | cell number change | AC50 [1] | AC50 [2]
1 | O=C(NCc1ccccn1)c1cccc(NS(=O)(=O)c2cccc(F)c2)c1 | -0.738% | 11.6 µM [rising, partial curve, poor fit] | 
2 | Nc1ncc(-n2cncn2)c(-c2ccc(Cl)cc2)n1 | -12.9% |  | 
3 | Clc1ccc(-c2cc(C3CCNCC3)[nH]n2)c(Cl)c1 | 33.5% |  | 29.1 µM [rising, single point]
4 | CCNC(=O)C(=O)c1c(-c2ccccc2)[nH]c2ccccc12 | -32.8% | 0.326 µM [falling, full curve, poor fit] | 0.259 µM [falling, full curve, poor fit]
5 | Cc1ccc(SCc2nc(-c3ccccc3)no2)cc1 | -5.95% | 8.2 µM [falling, partial curve] | 
6 | CCOc1ccc(OCC)c(S(=O)(=O)N2CCCCC2C)c1 (configuration not stated) | -9.53% |  | 
7 | COc1ccc(S(=O)(=O)N2CCN(Cc3ccc4c(c3)OCO4)CC2)cc1 | -2.56% | 5.17 µM [falling, single point] | 1.64 µM [rising, partial curve, poor fit]
8 | Cc1cc(S(=O)(=O)Nc2ccc3cn[nH]c3c2)c(C)cc1Cl | 5.24% | 0.231 µM [rising, full curve, poor fit] | 
9 | CN1CCN(c2nc(N3CCN(c4ccccc4)CC3)ncc2F)CC1 | 2.7% | 23.1 µM [rising, single point] | 
10 | O=C(NC(=S)NNC(=O)c1cccs1)c1ccc(Br)o1 |  | 0.58 µM [falling, single point] | 0.13 µM [falling, full curve, poor fit]
11 | CNC(=O)c1ccccc1-c1cn(C)c2ccccc2c1=O | 22.6% |  | 
12 | O=C(O)COc1c(-c2ccccc2)oc2ccccc2c1=O |  | 20.6 µM [falling, partial curve] | 
13 | CN(c1ccc(C(=O)NC2CC2)cc1)S(=O)(=O)c1ccccc1 | 11.4% |  | 
14 | NS(=O)(=O)c1ccc(NC(=O)c2cccc(Cl)c2)cc1 | -35.5% | 6.51 µM [falling, single point] | 6.51 µM [falling, full curve, poor fit]
15 | CN(c1ccc(F)cc1)S(=O)(=O)c1ccc(Cl)c(C(=O)NCC2CCCO2)c1 (configuration not stated) | -12.9% | 0.146 µM [falling, full curve, poor fit] | 
16 | CCOc1ccccc1NC1c2ccccc2C(=O)N1c1cccnc1 (configuration not stated) |  |  | 1.84 µM [rising, partial curve, poor fit]
17 | CS(=O)(=O)NCCNC(=O)c1cc(OCC(F)(F)F)ccc1OCC(F)(F)F | -34.9% |  | 0.00461 µM [rising, full curve, poor fit]
18 | COc1ccc([N+](=O)[O-])cc1NS(=O)(=O)c1cc(C(=O)O)ccc1OC | -37.5% | 23.1 µM [falling, partial curve] | 18.4 µM [falling, partial curve]
19 | Cc1cc(C(=O)N/N=C/c2ccco2)c2ccccc2n1 | 2.9% | 0.092 µM [falling, full curve, poor fit] | 
20 | O=C(CSc1n[nH]c(=O)[nH]c1=O)N/N=C/c1ccccc1 |  |  | 5.8 µM [falling, single point]

Row | Compound | cell number change | AC50 [1] | AC50 [2]
21 | O=C1CCc2cc(S(=O)(=O)NC(Cc3ccccc3)C(=O)NC3CCCCC3)ccc2N1 (configuration not stated) | -33.3% |  | 20.6 µM [falling, single point]
22 | Cc1c(O)ccc2c3c(c(=O)oc12)CCC(C)C3 (configuration not stated) | -2.93% | 4.11 µM [falling, single point] | 
23 | CC(C)CN(CC(C)C)C(=O)CN1C(=O)NC2(CCCc3ccccc32)C1=O (configuration not stated) | 23.9% | 0.731 µM [rising, single point] | 0.651 µM [rising, full curve, poor fit]
24 | CC(=O)c1ccc(S(=O)(=O)Nc2cccc(-c3ccc4nncn4n3)c2)cc1 | 4.28% |  | 0.291 µM [rising, partial curve]
25 | N/C(=N\OC(=O)c1cccc(Br)c1)c1ccncc1 | 18.5% | 7.31 µM [falling, single point] | 
26 | Cc1cccc(N(CC(=O)NC2CCCC2)C(=O)c2cc3cc4cccc(C)c4nc3s2)c1C | 19.3% |  | 
27 | Nc1ncccc1C(=O)OCC(=O)NC1CCCCCC1 | -0.775% | 6.51 µM [rising, single point] | 
28 | C/C(CC(=O)Nc1ccc2c(c1)OCCO2)=N\NC(=O)c1ccccc1Cl | 3.04% | 0.58 µM [rising, single point] | 
29 | COc1ccc(-c2cc(C(=O)Nc3cccnc3)c3ccccc3n2)cc1OC | -11.4% |  | 
30 | CCCNc1nc(C)nc2c1cnn2CCc1ccccc1 | 109% | 2.31 µM [rising, full curve] | 0.58 µM [rising, full curve]
31 | CC1CC(C)CN(C(=O)Cn2c(SCC(=O)N3CCc4ccccc4C3)nc3ccccc32)C1 (configuration not stated) | 20.9% | 14.6 µM [rising, partial curve] | 
32 | Cc1ccccc1NC(=O)c1cccc(N2C(=O)C3C4CC(C(Br)C4Br)C3C2=O)c1 (configuration not stated) | -16.1% | 29.1 µM [falling, single point] | 
33 | CCOC(=O)[C@@H]1[C@H]2COc3cc(OC)ccc3[C@@H]2N2C(=O)N(c3ccc(F)cc3)C(=O)[C@]12C | 6.29% |  | 
34 | CC(C)C[C@@]12C(=O)N(c3cccc(F)c3)C(=O)N1[C@H](c1ccc(Br)cc1)[C@@H]1C(=O)N(C(C)(C)C)C(=O)[C@@H]12 | -36.6% |  | 29.1 µM [falling, single point]
35 | CCCN[C@@H]1C(=O)N2C(C(=O)OCCC)=C(C)CS[C@H]12 | -5.5% |  | 
36 | O=C(COC(=O)CN1C(=O)c2ccccc2C1=O)Nc1ccccc1[N+](=O)[O-] | -22.5% | 0.00461 µM [falling, full curve, poor fit] | 0.00461 µM [falling, full curve, poor fit]
37 | COc1ccc(C(c2nnnn2Cc2cccs2)N2CCN(c3ccc(F)cc3)CC2)cc1OC (configuration not stated) | 58.7% |  | 3.66 µM [rising, full curve]
38 | Cc1ccc(Cl)cc1N1CCN(C(=O)COc2ccc(S(=O)(=O)NC(C)C)cc2)CC1 | -35.6% | 23.1 µM [falling, partial curve, poor fit] | 25.9 µM [falling, single point]
39 | O=C(Nc1ccc(Cl)cc1)N1CCN(c2ncccn2)CC1 | -18.8% | 0.13 µM [falling, full curve, poor fit] | 
40 | O=C(NCCCN1CCCC1=O)c1ccc(CNS(=O)(=O)c2ccc(F)cc2)cc1 | 16% |  | 

Looked up one by one from the list above (2):
Row | Compound | cell number change | AC50 [1] | AC50 [2]
34 | CC(C)C[C@@]12C(=O)N(c3cccc(F)c3)C(=O)N1[C@H](c1ccc(Br)cc1)[C@@H]1C(=O)N(C(C)(C)C)C(=O)[C@@H]12 | -36.6% |  | 29.1 µM [falling, single point]
23 | CC(C)CN(CC(C)C)C(=O)CN1C(=O)NC2(CCCc3ccccc32)C1=O (configuration not stated) | 23.9% | 0.731 µM [rising, single point] | 0.651 µM [rising, full curve, poor fit]

Going on with the list.

Row | Compound | cell number change | AC50 [1] | AC50 [2]
41 | Cc1nc(-c2cccnc2)sc1C(=O)Nc1ccc(C(F)(F)F)cc1 |  | 6.51 µM [rising, single point] | 2.59 µM [rising, single point]
42 | O=C(/C=C/c1ccco1)NCc1ccccn1 |  |  | 0.82 µM [rising, single point]
43 | COc1cc(/C=N/NC(=O)COc2c(C)cc([N+](=O)[O-])cc2C)ccc1OC(=O)c1ccccc1 | 31.6% | 2.06 µM [rising, partial curve] | 3.66 µM [rising, full curve, poor fit]
44 | COc1ccccc1NC(=O)CCCN1C(=O)C2CC=CCC2C1=O (configuration not stated) | 22% | 6.51 µM [rising, single point] | 
45 | N/C(=N\OC(=O)c1ccncc1)c1cccc([N+](=O)[O-])c1 | -24.1% | 6.51 µM [rising, single point] | 
46 | COc1ccccc1-n1c(SCC(=O)NC2CCCC2)nc2cccnc21 | 43.2% | 0.411 µM [rising, full curve] | 0.366 µM [rising, full curve]
47 | COc1ccc(/C=N/S(=O)(=O)c2ccccc2)cc1OC | -10.8% |  | 
48 | O=c1[nH]c2ccsc2c(=O)n1-c1ccc(F)cc1 | 10.5% | 0.0058 µM [falling, full curve, poor fit] | 
49 | O=C(Cc1ccccc1[N+](=O)[O-])OCC(=O)c1c[nH]c2ccccc12 | 64% |  | 18.4 µM [rising, partial curve]
50 | O=C(Cn1cnc2c(NC(=O)OCc3ccccc3)ncnc21)NCc1ccccn1 | -14.1% |  | 0.461 µM [falling, partial curve]
51 | Cc1cccc(NC(=S)NNC(=O)CCn2cc(C)cn2)c1 | -23.2% |  | 4.11 µM [falling, full curve, poor fit]
52 | COc1cc(SC)ccc1C(=O)NCCOc1ccccc1Cl | -1.38% | 2.59 µM [rising, partial curve] | 
53 | CC(=O)N1CCN(C(=O)c2cc(=O)c3ccccc3o2)CC1 | 23.8% |  | 
54 | CCN(CC)C(=O)C1CCCN(C/C=C/c2ccccc2[N+](=O)[O-])C1 (configuration not stated) | 32.4% |  | 
55 | O=C(c1ccco1)N1CCN(C(=O)c2ccccc2OCc2ccc(Cl)cc2)CC1 |  |  | 5.17 µM [rising, partial curve, poor fit]
56 | COc1ccc(OC)c(/C=N/N(C)c2ccccc2)c1 | -3.68% | 6.51 µM [rising, single point] | 
57 | Cn1c(NCCCN2CCOCC2)nc2c1c(=O)n(Cc1ccc(Cl)cc1Cl)c(=O)n2C | 17.2% | 0.00517 µM [falling, full curve, poor fit] | 0.13 µM [rising, full curve, poor fit]
58 | COc1ccc(CNC(=O)Cc2ccc(NC(=O)C3=C(C)OCCS3)cc2)cc1 | 21.8% | 0.58 µM [rising, single point] | 
59 | CCOC(=O)C1=C(C)N=c2s/c(=C\c3cccn3C)c(=O)n2C1c1cccc(OC)c1OC (configuration not stated) |  | 0.731 µM [falling, partial curve, poor fit] | 1.16 µM [falling, full curve, poor fit]
